No constants are given. Whether binding was seen depends on the method and setting. In cells and extracts the contact can be indirect. Some binding calls cover weakened binding; strength is not graded here.
Target: Smarca4 (mouse (endogenous in 81K1 ESC)) (UniProt Q3TKT4)
Test: co-IP; anti-Brg1 (H-88) or anti-Baf155 (R18) coupled to A/G PLUS agarose beads; 1 mg lysate of 81K1 ESC in GENNT buffer (5% glycerol, 5 mM EDTA, 0.2% NP-40, 150 mM NaCl, 50 mM Tris-HCl pH 8.0), 4 °C overnight; cells untreated or treated with doxycycline for three days (Smarcb1 knockdown); Western blot

Protein sequences, listed by entry. Tags and fused reporters are not part of them.
UniProt Q3TKT4: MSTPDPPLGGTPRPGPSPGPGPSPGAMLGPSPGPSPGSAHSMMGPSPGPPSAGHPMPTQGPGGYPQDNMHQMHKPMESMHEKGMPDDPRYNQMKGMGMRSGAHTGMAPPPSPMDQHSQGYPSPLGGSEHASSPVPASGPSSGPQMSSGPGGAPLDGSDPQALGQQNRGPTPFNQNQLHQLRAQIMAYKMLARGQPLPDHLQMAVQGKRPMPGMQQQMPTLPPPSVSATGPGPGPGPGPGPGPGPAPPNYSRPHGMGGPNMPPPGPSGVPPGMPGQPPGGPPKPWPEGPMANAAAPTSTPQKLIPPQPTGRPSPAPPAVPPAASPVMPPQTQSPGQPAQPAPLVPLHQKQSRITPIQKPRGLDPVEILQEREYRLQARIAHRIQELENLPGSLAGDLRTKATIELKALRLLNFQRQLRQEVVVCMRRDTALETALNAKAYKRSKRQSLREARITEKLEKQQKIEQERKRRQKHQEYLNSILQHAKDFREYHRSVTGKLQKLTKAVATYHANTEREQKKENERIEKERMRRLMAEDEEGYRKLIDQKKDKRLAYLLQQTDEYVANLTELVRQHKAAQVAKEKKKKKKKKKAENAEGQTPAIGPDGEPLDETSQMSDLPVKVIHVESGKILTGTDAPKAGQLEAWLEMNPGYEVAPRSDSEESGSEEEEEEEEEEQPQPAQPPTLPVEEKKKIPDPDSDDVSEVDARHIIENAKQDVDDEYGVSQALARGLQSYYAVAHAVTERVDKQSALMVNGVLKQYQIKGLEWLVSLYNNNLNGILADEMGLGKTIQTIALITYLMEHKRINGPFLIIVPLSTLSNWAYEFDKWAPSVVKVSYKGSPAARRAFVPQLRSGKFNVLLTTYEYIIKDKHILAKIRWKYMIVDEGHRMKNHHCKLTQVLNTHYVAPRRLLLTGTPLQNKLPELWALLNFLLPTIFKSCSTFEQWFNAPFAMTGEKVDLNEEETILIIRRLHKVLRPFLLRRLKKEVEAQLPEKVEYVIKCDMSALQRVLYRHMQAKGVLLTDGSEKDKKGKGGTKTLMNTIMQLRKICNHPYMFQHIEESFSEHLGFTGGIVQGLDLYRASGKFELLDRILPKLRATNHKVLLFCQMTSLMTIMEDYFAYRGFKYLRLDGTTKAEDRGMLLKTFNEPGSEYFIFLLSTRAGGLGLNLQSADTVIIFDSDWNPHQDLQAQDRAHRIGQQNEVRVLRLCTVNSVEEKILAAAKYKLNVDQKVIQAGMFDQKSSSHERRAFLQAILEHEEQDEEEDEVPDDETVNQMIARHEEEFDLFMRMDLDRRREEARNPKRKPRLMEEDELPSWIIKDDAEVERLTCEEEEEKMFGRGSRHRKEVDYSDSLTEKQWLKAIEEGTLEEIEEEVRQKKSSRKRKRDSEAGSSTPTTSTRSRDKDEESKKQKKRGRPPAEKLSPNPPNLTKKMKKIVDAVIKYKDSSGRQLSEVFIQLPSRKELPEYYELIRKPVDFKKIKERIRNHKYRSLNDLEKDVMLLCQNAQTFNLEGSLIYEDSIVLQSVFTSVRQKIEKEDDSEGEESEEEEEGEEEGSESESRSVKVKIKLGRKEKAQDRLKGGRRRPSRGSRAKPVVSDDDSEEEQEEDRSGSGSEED
UniProt P97496: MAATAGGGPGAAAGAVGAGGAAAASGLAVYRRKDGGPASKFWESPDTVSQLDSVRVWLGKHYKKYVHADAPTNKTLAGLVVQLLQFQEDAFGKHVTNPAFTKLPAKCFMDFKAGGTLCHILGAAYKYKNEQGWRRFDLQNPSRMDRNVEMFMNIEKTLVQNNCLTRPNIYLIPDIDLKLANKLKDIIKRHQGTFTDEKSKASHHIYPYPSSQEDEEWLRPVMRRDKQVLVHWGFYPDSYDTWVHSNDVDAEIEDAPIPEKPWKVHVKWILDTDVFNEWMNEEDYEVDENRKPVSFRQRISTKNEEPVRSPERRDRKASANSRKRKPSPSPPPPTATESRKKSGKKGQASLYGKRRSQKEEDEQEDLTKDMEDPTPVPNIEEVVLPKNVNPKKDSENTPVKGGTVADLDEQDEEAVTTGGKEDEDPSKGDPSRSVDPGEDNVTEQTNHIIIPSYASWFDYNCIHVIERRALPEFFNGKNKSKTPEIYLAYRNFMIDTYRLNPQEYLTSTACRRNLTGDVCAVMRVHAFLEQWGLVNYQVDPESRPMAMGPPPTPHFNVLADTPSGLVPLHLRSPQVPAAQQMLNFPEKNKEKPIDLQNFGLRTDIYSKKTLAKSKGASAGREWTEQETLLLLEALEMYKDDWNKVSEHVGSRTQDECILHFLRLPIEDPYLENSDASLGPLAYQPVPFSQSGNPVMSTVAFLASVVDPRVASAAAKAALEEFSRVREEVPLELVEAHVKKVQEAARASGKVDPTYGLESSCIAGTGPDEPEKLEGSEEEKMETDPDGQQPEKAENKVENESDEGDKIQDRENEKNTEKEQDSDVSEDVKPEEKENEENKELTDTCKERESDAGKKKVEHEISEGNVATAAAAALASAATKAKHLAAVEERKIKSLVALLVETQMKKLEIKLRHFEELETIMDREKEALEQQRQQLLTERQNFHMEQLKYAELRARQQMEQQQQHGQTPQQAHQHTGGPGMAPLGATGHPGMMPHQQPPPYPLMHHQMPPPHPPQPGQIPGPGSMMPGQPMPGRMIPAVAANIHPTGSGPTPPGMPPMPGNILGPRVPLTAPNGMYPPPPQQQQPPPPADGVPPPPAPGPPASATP

binding: binds
Substance: Smarcc1 (from UniProt P97496 1-1104)

Reference: PMC9027123
